{"source": "PubChem BioAssay AID743454, Peter MacCallum Cancer Centre – 2014", "assay": "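Knock-downs lowering viability or raising caspase 3/7 activity in vorinostat-treated resistant cells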 (primary screen)", "cell system": "human HCT116-VR colon cancer cells, selected for vorinostat resistance", "reagent": "siRNA pool against human genes, 40 nM siRNA pool", "timing": "vorinostat for 24 h, read-out about 72 h after transfection", "challenge": "vorinostat at 2.5 µM final", "read-out": "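Cell viability by CellTiter-Fluor and caspase 3/7 activity by luminescence, each scaled to mock wells per plate, duplicates averaged, then robust z-scored over all plates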", "reading the numbers": "viability robust z-score: higher = more viable cells than screen typical; caspase robust z-score: higher = more caspase 3/7 activity than screen typical", "call rule": "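Hits are knock-downs in viability class RV1/RV2 or caspase class CA1/CA2, excluding ones that killed cells in the no-drug cell-count arm; hits then retested with single siRNAs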", "note": "Here is one part, drawn at random, of about 18,000 reagents tested. Over the whole deposit, 450 (2.5%) were called active. 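Single biological run; no consistent viability z cut-off exists, so the class columns, not z-scores, define the calls.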 Entries without a mark were called inactive. No sequences are given here."}
{"Target gene":"GPI","viability hit class":"no change (active)","caspase hit class":"CA2 (caspase activation)","viability robust z-score":-2.2,"caspase robust z-score":5.19}
{"Target gene":"TAS1R3","viability hit class":"no change","caspase hit class":"no change","viability robust z-score":0.18,"caspase robust z-score":0.57}
{"Target gene":"ESYT2","viability hit class":"no change","caspase hit class":"no change","viability robust z-score":-1.38,"caspase robust z-score":3.15}
{"Target gene":"PLD1","viability hit class":"no change","caspase hit class":"no change","viability robust z-score":0.24,"caspase robust z-score":-0.74}
{"Target gene":"ASB12","viability hit class":"no change","caspase hit class":"no change","viability robust z-score":-0.45,"caspase robust z-score":-0.06}
{"Target gene":"PI16","viability hit class":"no change","caspase hit class":"no change","viability robust z-score":0.54,"caspase robust z-score":-0.18}
{"Target gene":"CDC16","viability hit class":"no change","caspase hit class":"no change","viability robust z-score":-0.14,"caspase robust z-score":0.1}
{"Target gene":"PTPN23","viability hit class":"no change","caspase hit class":"no change","viability robust z-score":0.24,"caspase robust z-score":-0.95}
{"Target gene":"PLS3","viability hit class":"no change","caspase hit class":"no change","viability robust z-score":1.21,"caspase robust z-score":-0.29}
{"Target gene":"NIPAL2","viability hit class":"no change","caspase hit class":"no change","viability robust z-score":0.64,"caspase robust z-score":1.66}
{"Target gene":"AZIN2","viability hit class":"no change","caspase hit class":"no change","viability robust z-score":0.24,"caspase robust z-score":-0.72}
{"Target gene":"ICAM2","viability hit class":"no change","caspase hit class":"no change","viability robust z-score":-1.48,"caspase robust z-score":-0.3}
{"Target gene":"CX3CR1","viability hit class":"no change","caspase hit class":"no change","viability robust z-score":-2.89,"caspase robust z-score":0.12}
{"Target gene":"MZF1","viability hit class":"no change","caspase hit class":"no change","viability robust z-score":-0.06,"caspase robust z-score":0.6}
{"Target gene":"CEP41","viability hit class":"no change","caspase hit class":"no change","viability robust z-score":0.02,"caspase robust z-score":-0.02}
{"Target gene":"BCL2","viability hit class":"no change","caspase hit class":"no change","viability robust z-score":-1.27,"caspase robust z-score":-0.94}
{"Target gene":"COX5B","viability hit class":"no change","caspase hit class":"no change","viability robust z-score":1.19,"caspase robust z-score":-0.04}
{"Target gene":"DMD","viability hit class":"no change","caspase hit class":"no change","viability robust z-score":0.45,"caspase robust z-score":0.12}
{"Target gene":"RINT1","viability hit class":"no change","caspase hit class":"no change","viability robust z-score":0.24,"caspase robust z-score":-1.51}
{"Target gene":"SMC2","viability hit class":"no change","caspase hit class":"no change","viability robust z-score":-0.27,"caspase robust z-score":0.28}
{"Target gene":"PRTG","viability hit class":"no change","caspase hit class":"no change","viability robust z-score":-0.15,"caspase robust z-score":0.86}

Records above whose target name starts with A or a (2):
{"Target gene":"ASB12","viability hit class":"no change","caspase hit class":"no change","viability robust z-score":-0.45,"caspase robust z-score":-0.06}
{"Target gene":"AZIN2","viability hit class":"no change","caspase hit class":"no change","viability robust z-score":0.24,"caspase robust z-score":-0.72}
